Measured data: PubChem BioAssay AID1259308 (NCATS, 2017)

Purpose: 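Knock-downs that increase output of a recombinant reporter protein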 (primary screen)
Cell system: human HEK293 embryonic kidney cells stably expressing firefly luciferase (HEK-CMV-Luc2-Hygro)
Knock-down reagent: single siRNA against human genes, 0.8 pmol siRNA per well
Duration: 72 h
Measured: 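Reporter luminescence and viable-cell signal on separate replicate plates, given as percent of non-targeting control and median/MAD z-scores, plus per-cell luciferase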
Direction: total luciferase, z-score: higher = more reporter protein produced
Rule for the call: 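Active when the median/MAD z-score for overall luciferase is greater than 3; a gene was taken forward for validation with new siRNAs if at least two of its three siRNAs passed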
Meaning of the calls: active = raised luciferase; inactive = no rise
Shown is a random part of about 59,000 reagents. Of all reagents, about 1,510 (2.6%) are marked active. 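Calls use total luciferase alone and ignore viability, so some active siRNAs may act by altering cell number.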 A number with no mark means an inactive call. Not all columns of the deposit are shown.

gene	PubChem SID	total luciferase, z-score
MYL10	SID160732164	-0.555
MYL10	SID160754485	-0.191
MYL10	SID160754486	1.99
NCOA6	SID160735339	0.142
NCOA6	SID160735341	-1.09
NCOA6	SID160735342	-0.268
DOK2	SID160721336	0.329
DOK2	SID160721337	-0.232
DOK2	SID160721338	-0.201
VMA21	SID160761157	-1.93
VMA21	SID160761158	1.17
VMA21	SID160761159	1.75
C12orf60	SID160758178	-1.26
C12orf60	SID160758179	-0.072
C12orf60	SID160758180	-0.88
FAR2	SID160744151	0.443
FAR2	SID160744152	0.364
FAR2	SID160744153	-0.421
RNASE4	SID160715936	1.27
RNASE4	SID160715938	0.752
RNASE4	SID160731662	-0.683
TRPM3	SID160731940	-1.43
TRPM3	SID160750004	-0.396
TRPM3	SID160750005	2.73
XRCC2	SID160718913	-0.338
XRCC2	SID160718914	0.473
XRCC2	SID160718915	0.965
FAIM2	SID160735117	0.0597
FAIM2	SID160735129	-1.04
FAIM2	SID160735137	0.786

In a second layout: results already given
DOK2 [SID160721337]
- total luciferase, z-score: -0.232

DOK2 [SID160721338]
- total luciferase, z-score: -0.201

VMA21 [SID160761157]
- total luciferase, z-score: -1.93

VMA21 [SID160761158]
- total luciferase, z-score: 1.17

VMA21 [SID160761159]
- total luciferase, z-score: 1.75

C12orf60 [SID160758178]
- total luciferase, z-score: -1.26

C12orf60 [SID160758179]
- total luciferase, z-score: -0.072

C12orf60 [SID160758180]
- total luciferase, z-score: -0.88

Continued.
gene	PubChem SID	total luciferase, z-score
GSX1	SID160730782	2.65
GSX1	SID160761237	0.399
GSX1	SID160761238	-1.65
MYRFL	SID160760622	-2.8
MYRFL	SID160760623	1.14
MYRFL	SID160760624	-1.11
PLCZ1	SID160753473	-0.951
PLCZ1	SID160753474	-0.977
PLCZ1	SID160753476	-0.436
PITPNM1	SID160722589	0.543
PITPNM1	SID160722590	0.00576
PITPNM1	SID160722591	0.0475
SOX13	SID160722547	-0.689
SOX13	SID160722548	-0.623
SOX13	SID160722549	1.95
DR1	SID160756189	-1.07
DR1	SID160756200	-1.18
DR1	SID160756210	-0.289
ZDHHC6	SID160747785	0.122
ZDHHC6	SID160747787	-1.2
ZDHHC6	SID160747788	0.0557
GDF15	SID160722399	0.204
GDF15	SID160722400	-1.43
GDF15	SID160735231	3.81 (active)
LMCD1	SID160739463	1.49
LMCD1	SID160739464	-0.455
LMCD1	SID160739466	0.229
DRC11	SID160749419	0.271
DRC11	SID160749420	0.673
DRC11	SID160749421	-0.938
CYP51A1	SID160756753	-1.32
CYP51A1	SID160756856	0.959
CYP51A1	SID160756957	-0.803
NDUFB10	SID160777885	0.287
NDUFB10	SID160777886	0.417
NDUFB10	SID160777887	0.326
CCR6	SID160745006	0.0438
CCR6	SID160745017	1.25
CCR6	SID160745028	0.801
PCGF3	SID160728208	-0.821
PCGF3	SID160728209	0.339
PCGF3	SID160730429	0.385
ARHGEF7	SID160721023	0.483
ARHGEF7	SID160721024	1.31
ARHGEF7	SID160721026	0.688
